The supplement of paper PMC12067093, “Discovery and optimisation of a covalent ligand for TRIM25 and its application to targeted protein ubiquitination” (Chemical Science, 2025)
This is one part of the list.

Chains of the proteins cited; added tags and fusions are not shown. Lines headed by an entry give the natural chain unless they say otherwise; changes in a name come on top.
UniProt Q9UDY8: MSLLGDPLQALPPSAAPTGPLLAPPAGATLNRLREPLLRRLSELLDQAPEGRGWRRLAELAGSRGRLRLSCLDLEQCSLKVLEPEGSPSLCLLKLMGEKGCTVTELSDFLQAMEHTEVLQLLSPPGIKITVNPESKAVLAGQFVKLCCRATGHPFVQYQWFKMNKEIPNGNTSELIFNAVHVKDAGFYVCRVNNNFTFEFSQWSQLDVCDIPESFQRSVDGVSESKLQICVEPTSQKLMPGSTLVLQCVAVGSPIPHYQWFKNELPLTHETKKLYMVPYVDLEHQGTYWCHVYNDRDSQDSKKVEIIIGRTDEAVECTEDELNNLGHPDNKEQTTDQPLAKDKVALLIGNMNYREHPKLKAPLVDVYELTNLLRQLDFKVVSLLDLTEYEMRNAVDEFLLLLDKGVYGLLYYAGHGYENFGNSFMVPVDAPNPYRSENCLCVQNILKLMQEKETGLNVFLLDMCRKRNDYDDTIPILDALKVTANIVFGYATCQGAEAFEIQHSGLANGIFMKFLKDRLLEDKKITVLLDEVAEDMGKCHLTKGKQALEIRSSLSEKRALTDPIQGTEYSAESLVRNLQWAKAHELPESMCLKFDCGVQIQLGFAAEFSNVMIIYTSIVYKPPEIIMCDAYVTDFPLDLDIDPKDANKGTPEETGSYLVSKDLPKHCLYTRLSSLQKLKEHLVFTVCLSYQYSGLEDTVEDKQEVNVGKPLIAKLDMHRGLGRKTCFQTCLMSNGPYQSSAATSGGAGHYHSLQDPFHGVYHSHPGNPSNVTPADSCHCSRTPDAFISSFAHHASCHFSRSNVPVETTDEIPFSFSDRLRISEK
UniProt Q92918, whole entry, looked up: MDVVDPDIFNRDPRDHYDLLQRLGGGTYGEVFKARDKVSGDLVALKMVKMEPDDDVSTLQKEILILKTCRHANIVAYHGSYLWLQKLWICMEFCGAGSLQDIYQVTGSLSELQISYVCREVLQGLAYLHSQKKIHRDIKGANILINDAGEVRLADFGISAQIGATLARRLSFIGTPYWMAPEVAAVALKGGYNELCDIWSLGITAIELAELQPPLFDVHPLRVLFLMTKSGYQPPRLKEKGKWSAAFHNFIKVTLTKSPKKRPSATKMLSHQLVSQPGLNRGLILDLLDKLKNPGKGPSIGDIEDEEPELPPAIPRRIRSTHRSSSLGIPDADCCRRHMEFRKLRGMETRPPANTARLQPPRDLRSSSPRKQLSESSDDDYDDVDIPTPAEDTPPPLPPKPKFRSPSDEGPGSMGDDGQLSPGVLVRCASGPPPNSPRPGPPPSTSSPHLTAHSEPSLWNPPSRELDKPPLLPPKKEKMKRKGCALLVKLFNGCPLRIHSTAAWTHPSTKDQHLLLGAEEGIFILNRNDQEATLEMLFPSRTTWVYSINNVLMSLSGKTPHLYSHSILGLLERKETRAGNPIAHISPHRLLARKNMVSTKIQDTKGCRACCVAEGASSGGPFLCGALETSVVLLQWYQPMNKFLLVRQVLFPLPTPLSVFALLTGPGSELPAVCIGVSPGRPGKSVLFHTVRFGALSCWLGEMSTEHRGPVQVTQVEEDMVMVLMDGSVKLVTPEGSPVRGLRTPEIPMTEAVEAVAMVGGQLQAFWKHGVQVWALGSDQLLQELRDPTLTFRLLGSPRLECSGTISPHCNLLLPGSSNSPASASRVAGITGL
UniProt P31153, whole entry, looked up: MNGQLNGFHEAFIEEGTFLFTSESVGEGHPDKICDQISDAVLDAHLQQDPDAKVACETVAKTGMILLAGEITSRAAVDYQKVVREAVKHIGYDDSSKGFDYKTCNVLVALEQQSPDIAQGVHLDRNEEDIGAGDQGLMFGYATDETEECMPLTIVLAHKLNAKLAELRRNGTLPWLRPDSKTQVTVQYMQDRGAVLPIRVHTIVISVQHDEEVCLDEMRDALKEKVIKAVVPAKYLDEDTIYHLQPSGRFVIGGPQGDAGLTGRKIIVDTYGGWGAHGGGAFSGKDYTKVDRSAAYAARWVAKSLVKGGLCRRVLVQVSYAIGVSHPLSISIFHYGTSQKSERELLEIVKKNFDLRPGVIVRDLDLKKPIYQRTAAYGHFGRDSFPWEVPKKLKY
UniProt Q66K74: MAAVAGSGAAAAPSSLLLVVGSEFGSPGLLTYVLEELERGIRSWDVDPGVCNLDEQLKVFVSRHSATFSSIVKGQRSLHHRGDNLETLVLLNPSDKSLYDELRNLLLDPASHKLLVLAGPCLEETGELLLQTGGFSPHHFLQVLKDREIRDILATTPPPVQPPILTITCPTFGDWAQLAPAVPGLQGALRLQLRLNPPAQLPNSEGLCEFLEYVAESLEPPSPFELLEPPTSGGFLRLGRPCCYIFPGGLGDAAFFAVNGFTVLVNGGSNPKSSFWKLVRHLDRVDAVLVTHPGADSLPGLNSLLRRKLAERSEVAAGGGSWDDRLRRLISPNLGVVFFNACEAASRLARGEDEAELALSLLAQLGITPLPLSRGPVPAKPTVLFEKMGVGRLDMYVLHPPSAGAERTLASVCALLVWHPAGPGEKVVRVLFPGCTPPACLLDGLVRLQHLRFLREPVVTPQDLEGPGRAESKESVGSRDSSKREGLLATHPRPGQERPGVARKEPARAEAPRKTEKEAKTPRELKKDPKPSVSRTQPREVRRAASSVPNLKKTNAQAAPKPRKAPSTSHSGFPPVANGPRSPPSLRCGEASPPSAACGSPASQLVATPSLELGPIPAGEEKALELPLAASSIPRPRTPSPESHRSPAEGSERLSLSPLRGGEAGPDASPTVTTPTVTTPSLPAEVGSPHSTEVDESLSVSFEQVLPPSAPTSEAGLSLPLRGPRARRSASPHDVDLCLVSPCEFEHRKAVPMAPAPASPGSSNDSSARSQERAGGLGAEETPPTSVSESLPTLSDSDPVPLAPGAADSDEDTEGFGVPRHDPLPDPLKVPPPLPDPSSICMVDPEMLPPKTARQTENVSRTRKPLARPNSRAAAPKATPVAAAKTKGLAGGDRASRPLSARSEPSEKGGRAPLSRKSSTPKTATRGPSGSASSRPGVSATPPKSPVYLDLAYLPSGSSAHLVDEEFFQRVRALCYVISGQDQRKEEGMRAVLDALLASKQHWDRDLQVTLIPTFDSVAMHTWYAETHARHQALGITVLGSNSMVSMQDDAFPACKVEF
UniProt Q9P2G4: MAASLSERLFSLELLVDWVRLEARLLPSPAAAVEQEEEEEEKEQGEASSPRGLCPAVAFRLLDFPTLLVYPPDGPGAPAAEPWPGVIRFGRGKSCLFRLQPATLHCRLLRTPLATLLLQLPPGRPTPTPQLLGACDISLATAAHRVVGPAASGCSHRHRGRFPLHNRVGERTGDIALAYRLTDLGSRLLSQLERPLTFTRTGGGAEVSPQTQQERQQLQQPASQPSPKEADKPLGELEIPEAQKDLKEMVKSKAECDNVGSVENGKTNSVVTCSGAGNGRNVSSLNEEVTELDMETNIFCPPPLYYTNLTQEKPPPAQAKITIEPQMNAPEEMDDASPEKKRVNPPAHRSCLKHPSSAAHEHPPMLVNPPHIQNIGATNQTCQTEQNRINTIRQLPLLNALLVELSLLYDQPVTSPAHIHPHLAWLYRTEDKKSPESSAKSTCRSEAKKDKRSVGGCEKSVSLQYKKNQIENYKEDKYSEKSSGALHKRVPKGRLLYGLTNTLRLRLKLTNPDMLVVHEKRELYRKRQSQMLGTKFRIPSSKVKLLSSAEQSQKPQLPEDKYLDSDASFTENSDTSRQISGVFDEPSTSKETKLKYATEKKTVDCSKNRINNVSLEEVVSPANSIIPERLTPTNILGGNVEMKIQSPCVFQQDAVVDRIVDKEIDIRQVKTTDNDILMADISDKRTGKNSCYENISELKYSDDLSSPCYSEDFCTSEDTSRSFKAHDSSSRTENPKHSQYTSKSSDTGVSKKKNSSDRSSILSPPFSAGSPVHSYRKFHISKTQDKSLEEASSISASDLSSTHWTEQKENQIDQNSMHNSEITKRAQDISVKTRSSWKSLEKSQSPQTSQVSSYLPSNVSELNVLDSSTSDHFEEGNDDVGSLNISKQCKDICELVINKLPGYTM
UniProt P56192: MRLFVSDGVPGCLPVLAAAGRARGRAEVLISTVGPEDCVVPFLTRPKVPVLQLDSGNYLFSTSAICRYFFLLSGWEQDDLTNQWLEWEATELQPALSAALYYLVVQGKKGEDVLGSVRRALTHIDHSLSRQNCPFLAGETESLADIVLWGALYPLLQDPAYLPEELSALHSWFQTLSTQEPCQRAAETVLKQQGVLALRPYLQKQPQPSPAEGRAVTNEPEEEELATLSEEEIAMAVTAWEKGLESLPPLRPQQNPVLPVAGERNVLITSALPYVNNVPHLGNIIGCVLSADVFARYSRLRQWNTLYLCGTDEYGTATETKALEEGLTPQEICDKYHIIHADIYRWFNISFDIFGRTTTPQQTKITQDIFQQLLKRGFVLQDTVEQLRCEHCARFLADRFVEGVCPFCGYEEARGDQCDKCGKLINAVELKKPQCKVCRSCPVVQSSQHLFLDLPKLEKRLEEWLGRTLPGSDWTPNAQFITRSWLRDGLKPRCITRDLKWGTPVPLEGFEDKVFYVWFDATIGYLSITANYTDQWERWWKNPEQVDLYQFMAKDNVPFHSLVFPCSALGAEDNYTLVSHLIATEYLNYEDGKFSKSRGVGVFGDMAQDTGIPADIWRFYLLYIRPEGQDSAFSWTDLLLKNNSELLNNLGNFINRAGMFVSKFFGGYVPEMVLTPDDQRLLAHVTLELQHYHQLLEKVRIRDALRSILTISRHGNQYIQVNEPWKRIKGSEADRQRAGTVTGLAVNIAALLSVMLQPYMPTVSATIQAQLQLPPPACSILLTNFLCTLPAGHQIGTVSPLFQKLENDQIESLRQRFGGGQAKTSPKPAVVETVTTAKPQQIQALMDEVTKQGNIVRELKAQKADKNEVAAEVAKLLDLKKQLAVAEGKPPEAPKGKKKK
UniProt Q9NQ29: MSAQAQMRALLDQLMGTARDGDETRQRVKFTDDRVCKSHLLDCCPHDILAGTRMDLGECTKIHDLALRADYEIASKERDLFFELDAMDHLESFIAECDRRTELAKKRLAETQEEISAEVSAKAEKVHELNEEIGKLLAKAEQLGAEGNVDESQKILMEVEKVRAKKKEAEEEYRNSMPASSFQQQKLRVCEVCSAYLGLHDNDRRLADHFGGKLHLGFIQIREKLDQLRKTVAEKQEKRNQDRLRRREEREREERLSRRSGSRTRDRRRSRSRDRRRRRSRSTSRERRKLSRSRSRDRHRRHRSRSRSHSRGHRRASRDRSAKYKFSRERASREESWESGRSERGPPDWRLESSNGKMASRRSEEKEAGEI
UniProt O00462: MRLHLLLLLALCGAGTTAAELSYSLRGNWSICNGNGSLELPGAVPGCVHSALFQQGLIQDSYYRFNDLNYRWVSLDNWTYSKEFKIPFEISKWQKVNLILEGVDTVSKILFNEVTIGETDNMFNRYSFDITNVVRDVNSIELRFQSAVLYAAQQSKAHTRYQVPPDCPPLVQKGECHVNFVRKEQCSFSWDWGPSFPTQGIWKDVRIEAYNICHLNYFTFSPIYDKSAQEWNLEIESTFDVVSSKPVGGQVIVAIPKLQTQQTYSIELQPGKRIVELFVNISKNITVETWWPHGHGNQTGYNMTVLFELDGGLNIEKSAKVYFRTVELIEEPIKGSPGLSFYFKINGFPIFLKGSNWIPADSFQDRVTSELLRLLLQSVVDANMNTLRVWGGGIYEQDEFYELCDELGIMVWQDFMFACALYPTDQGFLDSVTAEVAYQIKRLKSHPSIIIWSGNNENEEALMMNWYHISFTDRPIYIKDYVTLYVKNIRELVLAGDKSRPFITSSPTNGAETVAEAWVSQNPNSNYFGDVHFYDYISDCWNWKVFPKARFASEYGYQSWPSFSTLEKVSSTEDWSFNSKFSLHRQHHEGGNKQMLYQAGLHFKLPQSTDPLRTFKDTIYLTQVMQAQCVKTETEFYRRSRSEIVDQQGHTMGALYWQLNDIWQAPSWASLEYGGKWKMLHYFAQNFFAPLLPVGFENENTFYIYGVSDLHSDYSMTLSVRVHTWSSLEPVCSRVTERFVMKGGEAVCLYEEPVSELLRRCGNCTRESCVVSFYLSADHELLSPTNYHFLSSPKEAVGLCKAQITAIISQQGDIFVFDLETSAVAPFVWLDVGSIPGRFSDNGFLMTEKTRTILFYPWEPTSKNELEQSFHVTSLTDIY

Compound: CC1Cc2ccccc2N1C(=O)C1CCCN(C1)C(=O)CCl (mixture of isomers) [TRIM25 ligand 11 (diastereomer mixture)]
Assay: probe-labelled cysteine peptide fold change vs DMSO (competition) (log2 fold change); higher = less target engagement (more negative = stronger competition)
Details: THP-1, incubation time: 4 h
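Also: competitive chemoproteomic profiling in live THP-1 cells with an iodoacetamide desthiobiotin (IA-DTB) probe, comparing probe-labelled peptide intensities in compound-treated cells against DMSO-treated controls.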

Target	probe-labelled cysteine peptide fold change (10 µM)	probe-labelled cysteine peptide fold change (50 µM)
MACF1_Q9UPN3_3109_EIACGAQSEPFPCMTPRPEGLHYQESDGK (UniProt Q9UPN3)	-0.00248	-0.346
MAP3K5_Q99683_391_ALDIMIPMVQSEGQVASDMYCLVGR (UniProt Q99683)	0.187	-0.232
MALT1_Q9UDY8_667_HCLYTR (UniProt Q9UDY8)	0.019	-0.0638
MAN2A1_Q16706_840_IYSEVTCFFDHVTHR (UniProt Q16706)	0.132	0.17
MAVS_Q7Z434_33_NFSNFCNVDVVEILPYLPCLTAR (UniProt Q7Z434)	0.142	0.343
M6PR_P20645_145_AVVMISCNR (UniProt P20645)	-0.116	-0.202
MACF1_Q9UPN3_3527_GSNSEIDVDSLNLCLQQYEDLK (UniProt Q9UPN3)	-0.035	0.0862
LY75_O60449_83_CLGLDITK (UniProt O60449)	-0.12	0.154
MAD2L1_Q13257_106_WQFDIECDK (UniProt Q13257)	0.158	0.188
MAPK14_Q16539_162_PSNLAVNEDCELK (UniProt Q16539)	0.251	0.283
MAP4K1_Q92918_335_SSSLGIPDADCCR (UniProt Q92918)	-0.191	-0.167
MAP2K3_P46734_305_FSPEFVDFTAQCLR (UniProt P46734)	-0.0475	0.0563
MAT2A_P31153_56_VACETVAK (UniProt P31153)	0.00164	0.047
MAT2A_P31153_34_ICDQISDAVLDAHLQQDPDAK (UniProt P31153)	0.0179	-0.196
LYN_P07948_381_AANVLVSESLMCK (UniProt P07948)	0.0416	0.0995
MAP1S_Q66K74_975_ALCYVISGQDQR (UniProt Q66K74)	-0.0635	0.0166
LYST_Q99698_1646+1651_TFCMIGHCLSSQEEFLQLAGK (UniProt Q99698)	-0.00283	-0.0572
MAP10_Q9P2G4_605_TVDCSK (UniProt Q9P2G4)	-0.174	-0.0642
MAP4K1_Q92918_428_CASGPPPNSPR (UniProt Q92918)	0.0564	0.0226
MAP3K8_P41279_398_CQSLDSALLER (UniProt P41279)	-0.18	-0.224
MARS_P56192_38_AEVLISTVGPEDCVVPFLTRPK (UniProt P56192)	-0.0893	-0.138
MAP3K20_Q9NYL2_571_SDSSADCQWLDTLR (UniProt Q9NYL2)	-0.17	-0.244
MAVS_Q7Z434_133_TSDRPPDPLEPPSLPAERPGPPTPAAAHSIPYNSCR (UniProt Q7Z434)	0.0353	-0.142
MAD1L1_Q9Y6D9_662_LTSLYAEHPGDCLIFK (UniProt Q9Y6D9)	0.00589	-0.0309
MAP4K1_Q92918_334+335_SSSLGIPDADCCR (UniProt Q92918)	-0.0222	-0.126
LYAR_Q9NX58_25_HVSVCR (UniProt Q9NX58)	0.426	-0.0519
LYPLA2_O95372_171_DLAILQCHGELDPMVPVR (UniProt O95372)	-0.136	-0.229

Target	probe-labelled cysteine peptide fold change (10 µM)	probe-labelled cysteine peptide fold change (50 µM)
LYAR_Q9NX58_6_VFFTCNACGESVKK (UniProt Q9NX58)	-0.137	-0.0907
MAP7D1_Q3KQU3_373_SASASPLTPCSVTR (UniProt Q3KQU3)	-0.024	-0.274
MACF1_Q9UPN3_877_AVCDYR (UniProt Q9UPN3)	0.138	0.0558
LUC7L_Q9NQ29_97_ERDLFFELDAMDHLESFIAECDRR (UniProt Q9NQ29)	-0.0216	0.000413
MAP3K4_Q9Y6R4-2_1157_CHSDPPNPHLIIPTPEGFR (UniProt Q9Y6R4)	-0.126	-0.176
MBD2_Q9UBB5_359_NPAVWLNTSQPLCK (UniProt Q9UBB5)	-0.0192	-0.0298
MAP2K2_P36507_384_SEVEEVDFAGWLCK (UniProt P36507)	-0.0101	-0.211
MACF1_Q9UPN3_2895_SLGQVSLTHPYSECDFK (UniProt Q9UPN3)	0.0255	-0.275
MATR3_P43243_552_EDAMAMVDHCLKK (UniProt P43243)	-0.14	-0.0163
MBNL1_Q9NR56_27_GTCSRPDTECK (UniProt Q9NR56)	-0.108	-0.0586
LYAR_Q9NX58_6_VFFTCNACGESVK (UniProt Q9NX58)	-0.0304	-0.0338
MANBA_O00462_769_ESCVVSFYLSADHELLSPTNYHFLSSPK (UniProt O00462)	0.329	0.107
MAPK8_P45983_41_YQNLKPIGSGAQGIVCAAYDAILER (UniProt P45983)	-5.59e-05	-0.0715
MACF1_Q9UPN3_4581_QLEESASHLACFQAAESQLRPWLMEK (UniProt Q9UPN3)	-0.0945	-0.101
MARS_P56192_333_ALEEGLTPQEICDK (UniProt P56192)	0.088	0.151
MAZ_P56270_371_CEAAFATK (UniProt P56270)	0.0417	0.237
LYAR_Q9NX58_30_NCECLSCIDCGK (UniProt Q9NX58)	-0.0598	-0.0603
MAT2A_P31153_214_VHTIVISVQHDEEVCLDEMRDALK (UniProt P31153)	-0.156	-0.119
MARF1_Q9Y4F3_590_ELCETK (UniProt Q9Y4F3)	-0.0221	-0.157
MAP3K2_Q9Y2U5_512_LQTICLSGTGMK (UniProt Q9Y2U5)	0.0721	-0.0579
MAP1S_Q66K74_738_SASPHDVDLCLVSPCEFEHR (UniProt Q66K74)	-0.0533	-0.0572
MACF1_Q9UPN3_5188_LDIEASEAECR (UniProt Q9UPN3)	-0.0129	0.0708
MAP3K1_Q13233_667_AMLVYTPCHSLAER (UniProt Q13233)	0.29	0.387
MAST3_O60307_285_LLECLEFDPEEFYHLLEAAEGHAR (UniProt O60307)	0.418	0.335
MACF1_Q9UPN3_1522_AYHDLCDGSANQLQQLQSQLAHQTEQK (UniProt Q9UPN3)	0.0986	-0.17
MARK3_P27448_213_LDTFCGSPPYAAPELFQGK (UniProt P27448)	0.0441	0.0177
LTN1_O94822_999_TLPSHLCTSALLSK (UniProt O94822)	0.17	0.116
